The list shows a part of the results.

This assay has as its target T1, OsSMF1 (Oryza sativa, UniProt Q6ZLB0 1-436).
T1 sequence: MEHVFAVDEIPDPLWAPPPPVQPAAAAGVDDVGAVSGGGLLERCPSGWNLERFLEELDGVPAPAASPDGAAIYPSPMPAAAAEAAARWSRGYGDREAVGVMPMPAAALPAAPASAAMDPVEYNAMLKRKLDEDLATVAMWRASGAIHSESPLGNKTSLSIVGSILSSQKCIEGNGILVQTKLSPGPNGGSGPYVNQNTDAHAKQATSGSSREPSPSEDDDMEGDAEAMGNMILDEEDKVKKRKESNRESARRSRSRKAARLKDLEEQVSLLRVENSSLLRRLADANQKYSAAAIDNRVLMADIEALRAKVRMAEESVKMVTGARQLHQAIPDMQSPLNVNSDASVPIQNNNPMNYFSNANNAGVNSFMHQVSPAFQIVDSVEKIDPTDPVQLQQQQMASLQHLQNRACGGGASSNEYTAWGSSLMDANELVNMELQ
Nature of the assay: protein-binding microarray (RPBM); PBS, 2% BSA, 51.3 ng/ul salmon testes DNA, 50 uM zinc acetate, 200 nM TF, 25 C, 1 h; high values mean tight binding. The settings on record: protein: recombinant; tags: N-terminal polyhistidine and DsRed monomer fusion (pET32a); chain copies: 2; label: CyDye5-dUTP incorporated in the synthesized complementary strand; 3' TTTTT single-stranded linker to array surface; dsDNA, one strand shown. An outline of the steps: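 The binding signal is fluorescence intensity per array feature (arbitrary units). Readings came from an Axon 4000B scanner after a washed, 2% BSA-blocked, double-stranded custom Agilent array had been incubated for 1 h at 25 °C with 200 nM protein and 50 µM zinc acetate. The protein was a Ni–NTA-purified transcription factor fused N-terminally to polyhistidine and DsRed, expressed in E. coli BL21-CodonPlus.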
Turning to “TATCTCACTTACACATCACTTACATATGTAATTATTATGTCGGAGTCACCTAGTGCAG”, the binding signal was 3500 fluorescence intensity (a.u.).

Regarding “CGCTCGCCGATCACACGCTGACGCGCACACACCGGCGATTCGGAGTCACCTAGTGCAG”, the binding signal was 5570 fluorescence intensity (a.u.).

On to “CACGGTTAGGTTTGGGCTAATGTCATCCGCTCGATTGCAGCGGAGTCACCTAGTGCAG”, for which the binding signal is 3920 fluorescence intensity (a.u.).

Turning to “AGGTGTGATGATAAAATTATTAGTACATGACTCAACCTAACGGAGTCACCTAGTGCAG”, the binding signal was 4630 fluorescence intensity (a.u.).

As for “CCGACGAGGCGGCTGAGCCAGCGTGGGACCCACGTGGACCCGGAGTCACCTAGTGCAG”, the binding signal is 7770 fluorescence intensity (a.u.).

For “CCTGGCCACCTCGTTCCCCTTCGCCACGCTTCCACTCTGCCGGAGTCACCTAGTGCAG”, the binding signal was 5830 fluorescence intensity (a.u.).

For “GCCCATGTACGATGACGTGTACCCTATTGTCTTCTACTAGCGGAGTCACCTAGTGCAG”, the binding signal is 21600 fluorescence intensity (a.u.).

Turning to “TGGCTAGCAGCTGACGAGCTGTCATCGTTGTCAACTCGCTCGGAGTCACCTAGTGCAG”, the binding signal is 6740 fluorescence intensity (a.u.).

As for “TGCTGCGATCCCAGTCCAAGCGATGTCTCGTGACGGTCACCGGAGTCACCTAGTGCAG”, the binding signal was 3290 fluorescence intensity (a.u.).

“ACTTAAACCCATGTATATTAACAAACCACGTGTCCATCAACGGAGTCACCTAGTGCAG”: the binding signal was 6900 fluorescence intensity (a.u.).

On to “TGCATGTCAAACAGCTGGGTGCATCACCCACCGCGAATCGCGGAGTCACCTAGTGCAG”, for which the binding signal was 3830 fluorescence intensity (a.u.).

In the case of “CATCGCCGCGCGTGCACCAGAGGACCAGACCGACCGGCGTCGGAGTCACCTAGTGCAG”, the binding signal was 50200 fluorescence intensity (a.u.).

As for “GTCGGTGAGAGATACTTCACTGAGCTTATAAATAAGAGCACGGAGTCACCTAGTGCAG”, the binding signal was 26300 fluorescence intensity (a.u.).

As for “CCCGATCCCCGTGGCCACACCCTACCAGTCTTCCAGATCTCGGAGTCACCTAGTGCAG”, the binding signal is 4050 fluorescence intensity (a.u.).

In the case of “CCCTCCCACCAATCAATCCACGTGCTCCAGAACCCTAACCCGGAGTCACCTAGTGCAG”, the binding signal was 4270 fluorescence intensity (a.u.).

Turning to “CACCGCCGCCCCAGCGCCGCCCCGTTCGCGCGAGCCCGCCCGGAGTCACCTAGTGCAG”, the binding signal was 22300 fluorescence intensity (a.u.).

Consider “CAAGGATCACATCCTGAAGCTGGAGCCAACAAGCACACAGCGGAGTCACCTAGTGCAG”, for which the binding signal is 4430 fluorescence intensity (a.u.).

“TACAGTCCACACACAACGCCGAACCCTGCAGTGCCTACCTCGGAGTCACCTAGTGCAG”: the binding signal was 3250 fluorescence intensity (a.u.).

On to “AAATTGTAAGGCTCTAGTGGCCGACGTGTAATAATAATCCCGGAGTCACCTAGTGCAG”, for which the binding signal is 5680 fluorescence intensity (a.u.).

Regarding “AATTTTAAGATGTGTCAGCTCAGTCTTTTGGAGATGTTTTCGGAGTCACCTAGTGCAG”, the binding signal was 3640 fluorescence intensity (a.u.).

Take “GTTCATCGCGTATGCGCGCGGCAGCCGGCCGGTGGGCGACCGGAGTCACCTAGTGCAG”: the binding signal was 3220 fluorescence intensity (a.u.).

Turning to “TATATTTCGCCAACACGCCATCCAAACACTTGGATCATGCCGGAGTCACCTAGTGCAG”, the binding signal is 3570 fluorescence intensity (a.u.).

Turning to “ATTTGAGGGCTGGATGACTAGGTATAAAATGGGGCGGGCTCGGAGTCACCTAGTGCAG”, the binding signal was 7100 fluorescence intensity (a.u.).

For “AGCGTATTTCAGGATCACAGGTACGTAATCGTCAGCACAACGGAGTCACCTAGTGCAG”, the binding signal was 5530 fluorescence intensity (a.u.).

Regarding “CTCCTCCCCAACCAATATAGCTCCTAGCTGCTACGAGTCCCGGAGTCACCTAGTGCAG”, the binding signal is 30800 fluorescence intensity (a.u.).

Regarding “GGTGCCATGTACCATGACGCGACAGCGACCGTCTCTCTTCCGGAGTCACCTAGTGCAG”, the binding signal was 3290 fluorescence intensity (a.u.).

Regarding “CCTTGAAGTAGACGAGGCTGGTGACGCAGAACTTGACCCACGGAGTCACCTAGTGCAG”, the binding signal was 7680 fluorescence intensity (a.u.).

Regarding “CCGCTATCGTCTATTGGGCGTGGCACGGATTTGGGGATCCCGGAGTCACCTAGTGCAG”, the binding signal is 4450 fluorescence intensity (a.u.).

With “TCGATGCTCCAACCTACCTTGCCGACGCCGTCACCACGACCGGAGTCACCTAGTGCAG”, the binding signal is 3520 fluorescence intensity (a.u.).

On to “TTTGGTAGCTTCTTCTATTGTGAATCAGGTATCATGCAGCCGGAGTCACCTAGTGCAG”, for which the binding signal is 3260 fluorescence intensity (a.u.).

For the sequence “CGCGACGCTGGCGATGAGTCATGCTGGACGAAGTAGAAGGCGGAGTCACCTAGTGCAG”, the binding signal is 7520 fluorescence intensity (a.u.).

Regarding “TATAAATATGGATACCATATGTATAGATTAGTCACTTCAACGGAGTCACCTAGTGCAG”, the binding signal was 4820 fluorescence intensity (a.u.).

“CTTCTGCACCTTCAGTCATACAATATGTCAAGTCCTATGTCGGAGTCACCTAGTGCAG”: the binding signal was 3680 fluorescence intensity (a.u.).

With “TAGAAAGGTCGTCCCGCGGCACGTCAACGTTCAAACCAGCCGGAGTCACCTAGTGCAG”, the binding signal is 5620 fluorescence intensity (a.u.).

“TTAATTCCATGAATAGCACACCATATACGGTACATGGATCCGGAGTCACCTAGTGCAG”: the binding signal is 30400 fluorescence intensity (a.u.).

For “CGTTCCAAAATAAGTGCAGTCATGGATATCCATGCCCAGCCGGAGTCACCTAGTGCAG”, the binding signal is 3360 fluorescence intensity (a.u.).

Consider “ACCCGCCTTGGATGGGCCACCGACAGAATTAGGATCCTCTCGGAGTCACCTAGTGCAG”, for which the binding signal is 4040 fluorescence intensity (a.u.).

As to “AATCTTTTGAGCCTAATTACGTCATGATTTGACAATGTGGCGGAGTCACCTAGTGCAG”, the binding signal was 13700 fluorescence intensity (a.u.).

Take “GTTTACTTTAGATCATGTCCTGTCATCGCAGTATAAGGGTCGGAGTCACCTAGTGCAG”: the binding signal was 4400 fluorescence intensity (a.u.).

Take “TCACTCTCTTCATCTCATGAGCATCTCACTCACTCATCTCCGGAGTCACCTAGTGCAG”: the binding signal was 3200 fluorescence intensity (a.u.).

For the sequence “GGTGTGGAACGGAGGGAAGATTAACGTGCCACGCTGCTGCCGGAGTCACCTAGTGCAG”, the binding signal was 4360 fluorescence intensity (a.u.).

As to “GCGAGCAAATTTTCGTGGGGATTAGTATGCGTGTATTTATCGGAGTCACCTAGTGCAG”, the binding signal was 3240 fluorescence intensity (a.u.).

The record behind these values is PMC7819943, “Rice protein-binding microarrays: a tool to detect cis-acting elements near promoter regions in rice”.
